Measurements published in paper PMC7576778, “The tomato receptor CuRe1 senses a cell wall protein to identify Cuscuta as a pathogen” (Nature Communications, 2020).
No constants are given. Whether binding was seen depends on the method and setting. Binding seen in cells or lysates may run through a third protein. A result given as binding can be weak or reduced; the word gives no strength.

Target: Cuscuta Receptor 1 (CuRe1), myc-tagged (tomato (Solanum lycopersicum))
Assay: cross-linking; in planta affinity cross-linking: N. benthamiana leaves expressing 35S::CuRe1:myc infiltrated with 10 nM bio-Crip29 in ddH2O with or without 10 uM unlabeled competitor; after 5 min 2 mM EGS in 25 mM HEPES pH 7.5; harvested 20 min later; myc-trap immunoprecipitation; biotin detected with streptavidin-AP; only the binder purified

Row | Binder | binding
1 | NCGNSGCCGGAYSNGQCKRCC [Crip21 (cysteine-rich peptide 21), minimal peptide epitope of CrGRP] | binds
2 | GKGKNCGNSGCCGGAYSNGQCKRCCAYKG (biotin on the N-terminus) [bio-Crip29 (N-terminally biotinylated 29-aa Crip peptide)] | binds
